Test results: the supplement of paper PMC7661543
± gives the standard deviation of the averaged measurements. Differences between knockout arms are mostly noise.

Experiments:
Experiment in all cases: relative cell number vs DMSO control (72 h) (% of DMSO); higher = less growth inhibition (more cells)
MDA-MB-231 = system: MDA-MB-231
Protocol: (§1)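 QMAP-Seq: a pool of 5 breast cancer cell lines (ZR-75-1, SKBR3, HCC-38, MDA-MB-231, BT-20), each carrying 12 doxycycline-inducible Cas9 sgRNA perturbations (11 knockouts plus non-targeting sgNT), was treated with compounds for 72 h at four 10-fold doses (10 nM-10 uM or 1 nM-1 uM range). Barcodes were amplified and sequenced, and cell number was interpolated from 293T spike-in standard curves. The result is expressed as % of the median of DMSO wells. Two biological replicates.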

ZR-75-1 = system: ZR-75-1
Protocol: as §1

SKBR3 = system: SKBR3
Protocol: as §1

CS(=O)(=O)CCNCc1ccc(-c2ccc3ncnc(Nc4ccc(OCc5cccc(F)c5)c(Cl)c4)c3c2)o1 [Lapatinib]
relative cell number
Settings | MDA-MB-231 | SKBR3 | ZR-75-1
sgRNA knockout: sgATF3, 10 nM | 103 ± 24 | 97.3 ± 2.1 | 81.9 ± 12
sgRNA knockout: sgATF3, 100 nM | 86.5 ± 15 | 87.1 ± 5 | 109 ± 30
sgRNA knockout: sgATF3, 1000 nM | 110 ± 5.3 | 47.9 ± 5.8 | 89.4 ± 28
sgRNA knockout: sgATF3, 10000 nM | 38.3 ± 13 | 17.3 ± 2 | 42.1 ± 8.6
sgRNA knockout: sgATF4, 10 nM | 112 ± 8.6 | 96.2 ± 9 | 119 ± 17
sgRNA knockout: sgATF4, 100 nM | 102 ± 20 | 79 ± 1.8 | 104 ± 3.4
sgRNA knockout: sgATF4, 1000 nM | 81 ± 3.9 | 51.6 ± 1.7 | 73.8 ± 9.5
sgRNA knockout: sgATF4, 10000 nM | 38.4 ± 13 | 16.8 ± 1.2 | 39.9 ± 6.3
sgRNA knockout: sgATF6, 10 nM | 85.5 ± 28 | 87.4 ± 2.2 | 81.1 ± 26
sgRNA knockout: sgATF6, 100 nM | 106 ± 36 | 73.9 ± 16 | 76.2 ± 22
sgRNA knockout: sgATF6, 1000 nM | 87.5 ± 22 | 48 ± 14 | 92.6 ± 52
sgRNA knockout: sgATF6, 10000 nM | 31.4 ± 1.3 | 14.5 ± 4.5 | 28.8 ± 5.1
sgRNA knockout: sgATG7, 10 nM | 96.6 ± 5.7 | 98.8 ± 20 | 90.7 ± 15
sgRNA knockout: sgATG7, 100 nM | 85.5 ± 4.9 | 98.2 ± 20 | 77.3 ± 4.4
sgRNA knockout: sgATG7, 1000 nM | 98.39 ± 0.29 | 53.76 ± 0.51 | 77.9 ± 29
sgRNA knockout: sgATG7, 10000 nM | 41.9 ± 2.3 | 18.3 ± 5.2 | 33.5 ± 17
sgRNA knockout: sgERN1, 10 nM | 102 ± 35 | 102 ± 10 | 87.5 ± 27
sgRNA knockout: sgERN1, 100 nM | 84.19 ± 0.34 | 80.8 ± 14 | 53.1 ± 9.1
sgRNA knockout: sgERN1, 1000 nM | 89 ± 11 | 44.9 ± 9.1 | 94.2 ± 16
sgRNA knockout: sgERN1, 10000 nM | 36.6 ± 10 | 16.3 ± 5.6 | 36.8 ± 3.9
sgRNA knockout: sgHSF1, 10 nM | 87.3 ± 7.9 | 82.9 ± 3.9 | –
sgRNA knockout: sgHSF1, 100 nM | 80.1 ± 6.1 | 76.4 ± 6.1 | –
sgRNA knockout: sgHSF1, 1000 nM | 108 ± 11 | 35.1 ± 6.7 | –
sgRNA knockout: sgHSF1, 10000 nM | 26.3 ± 1.9 | 17.2 ± 4.1 | –
sgRNA knockout: sgHSF2, 10 nM | 96.93 ± 0.37 | 97.7 ± 26 | 98.9 ± 4.2
sgRNA knockout: sgHSF2, 100 nM | 86 ± 4.5 | 68.5 ± 5.1 | 86.6 ± 4.4
sgRNA knockout: sgHSF2, 1000 nM | 92.8 ± 26 | 51.8 ± 4.4 | 86.9 ± 24
sgRNA knockout: sgHSF2, 10000 nM | 29.6 ± 12 | 16.8 ± 6.6 | 35.7 ± 6.4
sgRNA knockout: sgKEAP1, 10 nM | 74.4 ± 2.4 | 105 ± 17 | –
sgRNA knockout: sgKEAP1, 100 nM | 101 ± 3.8 | 83 ± 5.6 | –
sgRNA knockout: sgKEAP1, 1000 nM | 88 ± 5 | 50.6 ± 5.7 | –
sgRNA knockout: sgKEAP1, 10000 nM | 33.7 ± 11 | 15.2 ± 2.3 | –
sgRNA knockout: sgNFE2L2, 10 nM | 87 ± 5.4 | 94.6 ± 3.3 | 99.4 ± 1.6
sgRNA knockout: sgNFE2L2, 100 nM | 91.6 ± 14 | 71.1 ± 2.7 | 72.4 ± 12
sgRNA knockout: sgNFE2L2, 1000 nM | 99 ± 37 | 45.1 ± 16 | 81.49 ± 0.54
sgRNA knockout: sgNFE2L2, 10000 nM | 33.3 ± 6.6 | 16.6 ± 5.9 | 33.3 ± 4.7
sgRNA knockout: sgSLC35F2, 10 nM | 107 ± 8.7 | 97 ± 1 | 46 ± 22
sgRNA knockout: sgSLC35F2, 100 nM | 83.7 ± 10 | 80 ± 7.5 | 78.4 ± 28
sgRNA knockout: sgSLC35F2, 1000 nM | 89.4 ± 10 | 51.5 ± 12 | 121 ± 53
sgRNA knockout: sgSLC35F2, 10000 nM | 32.8 ± 3.7 | 21.1 ± 0.43 | 28.4 ± 12
sgRNA knockout: sgXBP1, 10 nM | 97.4 ± 12 | 67.4 ± 4.1 | 80.7 ± 18
sgRNA knockout: sgXBP1, 100 nM | 86.2 ± 21 | 89.2 ± 2.6 | 76.3 ± 14
sgRNA knockout: sgXBP1, 1000 nM | 118 ± 35 | 45.6 ± 6.7 | 78.22 ± 0.16
sgRNA knockout: sgXBP1, 10000 nM | 32 ± 6.2 | 20.6 ± 6.1 | 30.9 ± 7.6
